# Measurements reported in PubChem BioAssay AID504444 (National Center for Advancing Translational Sciences (NCATS), 2011).
# The whole screen tested about 360,000 compounds, of which about 7,500 (2.1%) were called active. Inconclusive results, whose numbers are uncertain, are shown with a selection of clear calls. Calls come from the whole dose curve; as a rule, active = well fitted inhibition curve with a large enough effect; inconclusive = small, poorly fitted or top-dose-only effect, or effect the other way; inactive = flat fitted curve, though single readings scatter. Where the call is inconclusive, the potency comes from a doubtful curve fit.
# Test: Nrf2 qHTS screen for inhibitors; note: nearly all actives have a fitted effect of over 60% in size
# Conditions: A549 ARE-Fluc reporter, luciferase luminescence, 18-24 h; activity change, negative = inhibition: at 46 µM (top of the series)
# Procedure, shortened: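 Concentration-response testing used A549 ARE_Fluc cells at 5000 cells/well. Following an 18-24 h compound incubation, viability was read by fluorescence (Ex 405/Em 525) and luciferase output by luminescence.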
# % is set by controls: 0 for no effect and ±100 for the full control effect; potency is the fitted concentration of half-maximal effect.
SMILES,Potency,"activity change, negative = inhibition"
Cc1ccc(C)n1-c1ncc(Br)cn1,"inconclusive: 0.082 µM [activator, full curve, poor fit]",
O=C(NCc1ccc2c(c1)OCO2)c1ccc(CN2CCc3ccccc3C2)cc1,"inconclusive: 18.4 µM [falling, partial curve, poor fit]",
CC(C)C(=O)C1=Cc2cccc([N+](=O)[O-])c2OC1N1CCOCC1 (stereo not given),,inactive: -10.4%
COc1cccc(F)c1C(C[N+](=O)[O-])c1c(N)n(C)c(=O)n(C)c1=O (stereo not given),"inconclusive: 18.4 µM [falling, single point]",
NC(=O)c1c(NC(=O)c2noc3c2CCCC3)sc2c1CCCC2,"inconclusive: 7.31 µM [activator, partial curve]",
Cc1ccc(Oc2cc(C)nc(-c3ccccc3O)n2)cc1,"inconclusive: 0.092 µM [activator, full curve, poor fit]",
CCC(C)c1ccc(NC(=O)Nc2cccnc2)cc1 (stereo not given),"inconclusive: 2.06 µM [activator, full curve, poor fit]",
CCCc1c(C)nc2ccc(OC)cc2c1SCCC(=O)O,,inactive: 12.3%
CS(=O)(=O)c1ccccc1-c1csc(N2CCC(C(N)=O)CC2)n1,"inconclusive: 0.58 µM [activator, full curve, poor fit]",
CCN1CC(CN(C)Cc2nc(-c3ccc(Cl)cc3)no2)CC1=O (stereo not given),"inconclusive: 25.9 µM [falling, partial curve]",
Cc1noc(NS(=O)(=O)c2ccc(NC(=O)NC(C)(C(F)(F)F)C(F)(F)F)cc2)c1C,,inactive: -18%
Cc1cc(C)n2nc(SCC(=O)N3CCC(C)CC3)nc2n1,"inconclusive: 18.4 µM [activator, partial curve]",
O=C(O)CCCCCN1C(=O)/C(=C\c2cn(-c3ccccc3)nc2-c2cccs2)SC1=S,"inconclusive: 20.6 µM [falling, partial curve, poor fit]",
CCOC(=O)C1=C(c2ccccc2)N=c2s/c(=C\c3ccco3)c(=O)n2C1c1cccs1 (stereo not given),"inconclusive: 23.1 µM [falling, single point]",
Cc1ccc(O)c(NC(=O)/C=C/C(=O)O)c1,"inconclusive: 0.0326 µM [falling, full curve, poor fit]",
COc1ccc(CC(=O)Nc2cccc(-c3nnc(-c4ccc(C)cc4)o3)c2)cc1OC,"inconclusive: 7.31 µM [falling, partial curve]",
Cc1nn(C)cc1CN1CCCC(C(=O)c2ccc(-c3ccccc3)cc2)C1 (stereo not given),"inconclusive: 29.1 µM [falling, single point]",
O=C(N/N=C/c1ccc([N+](=O)[O-])o1)c1cc(-c2cccc(Br)c2)nc2ccccc12,active: 12.6 µM,
Cc1c(C(=O)Nc2c(F)cccc2F)sc2ncnc(N3CCN(c4ccccc4)CC3)c12,"inconclusive: 11.6 µM [falling, partial curve, poor fit]",
COc1cc(C(=O)NCc2cccc3ccccc23)ccc1OCc1ccccc1,"inconclusive: 3.66 µM [falling, partial curve, poor fit]",
Cc1ccccc1OCC1Cn2c(nc3c2c(=O)[nH]c(=O)n3C)O1 (stereo not given),"inconclusive: 0.146 µM [falling, full curve, poor fit]",
CC(C)CCn1cnc2c(oc3nc4c(cc32)CCCC4)c1=O,"inconclusive: 0.326 µM [activator, full curve]",

SMILES,Potency,"activity change, negative = inhibition"
CC(=O)c1ccc(NS(=O)(=O)c2c(C)cc(C)cc2C)cc1,"inconclusive: 6.51 µM [falling, full curve, poor fit]",
COc1ccc(CCNC(=O)C2CCN(C(=O)c3cccs3)CC2)cc1,"inconclusive: 4.11 µM [falling, single point]",
O=C(Cn1nnc(-c2ccccc2Cl)n1)Nc1cccc(S(=O)(=O)N2CCCC2)c1,"inconclusive: 18.4 µM [falling, single point]",
COc1cc(Nc2nc(-c3ccccc3)c3cc(C)ccc3n2)cc(OC)c1OC,"inconclusive: 25.9 µM [falling, single point]",
Cc1ccccc1OCC1Cn2c(nc3c2c(=O)n(C)c(=O)n3C)O1 (stereo not given),"inconclusive: 23.1 µM [falling, single point]",
Cc1noc(C)c1COc1ccc(C(=O)NNC(=O)c2ccccc2F)cc1,,inactive: -2.89%
CCN1c2ccccc2NC2N=C(OC)C(c3ccccc3)C21 (stereo not given),"inconclusive: 29.1 µM [falling, single point]",
Cc1cc(/C=C2\SC(=O)N(C)C2=O)c(C)n1-c1ccc(O)cc1,"inconclusive: 1.03 µM [activator, partial curve]",
CC1(C)O[C@@H]2C[C@H]3[C@@H]4CCC5=CC(=O)C=C[C@]5(C)[C@@]4(F)[C@@H](O)C[C@]3(C)[C@]2(C(=O)CO)O1,active: 0.0041 µM,
Cc1ccc(Sc2c(C=O)c3ccccc3n2C)cc1,"inconclusive: 11.6 µM [falling, single point]",
Cc1ccc(C)c(-n2sc3ccc(F)cc3c2=O)c1,,inactive: -23.2%
CC(C)(C)OC(=O)NCc1ccc(NC(=O)c2nc[nH]c2C(=O)NCCCCCCNC(=O)c2[nH]cnc2C(=O)Nc2ccc(CNC(=O)OC(C)(C)C)cc2)cc1,,inactive: -27.1%
CC(C)(C)OC(=O)N1CCC[C@H]1C(=O)N/N=C/c1cccc2cccnc12,"inconclusive: 29.1 µM [falling, single point]",
O=C(O)CCC(=O)N1CCN(c2ccccn2)CC1,,inactive: 5.57%
CCC1CCCCN1CCNC(=O)C1CCN(S(=O)(=O)c2cccc3nsnc23)CC1 (stereo not given),,inactive: 0.17%
COc1ccc(NC(=O)c2ccc(C)cc2)cc1,"inconclusive: 0.651 µM [activator, full curve, poor fit]",
Cc1cccc(NC(=O)CCNC(=O)c2ccc(Br)cc2)c1,"inconclusive: 2.91 µM [activator, full curve]",
Fc1ccc(/C=N/Nc2ccccn2)cc1,"inconclusive: 18.4 µM [activator, partial curve]",
CCOc1ccc(-c2csc3ncnc(Nc4cccc(O)c4)c23)cc1,"inconclusive: 16.4 µM [activator, partial curve]",
C[C@@H]1CN(C(=O)c2cc(COc3cccc(C(F)(F)F)c3)on2)C[C@H](C)O1,,inactive: 6.9%
CCOC(=O)c1cnc(-n2nc(C)cc2C)nc1NCc1ccccc1,"inconclusive: 29.1 µM [falling, single point]",
Cc1cc(C)cc(N(C)S(=O)(=O)c2nnc(NC(=O)COc3ccc(C)c(C)c3)s2)c1,"inconclusive: 32.6 µM [falling, single point]",

SMILES,Potency,"activity change, negative = inhibition"
CCCCn1c(N)c(N(CC(C)C)C(=O)CSCc2ccc(Cl)c(Cl)c2)c(=O)[nH]c1=O,"inconclusive: 6.51 µM [falling, partial curve, poor fit]",
CCOCCCNC(=O)c1c(NC(=O)Cc2coc3c(C)c(C)ccc23)sc2c1CCC2,"inconclusive: 29.1 µM [falling, single point]",
CC1CCN(S(=O)(=O)c2cc(C(=O)Nc3ccccn3)ccc2Br)CC1,"inconclusive: 29.1 µM [falling, single point]",
Cc1cc(NC(=O)C(Cl)c2ccccc2)no1 (stereo not given),"inconclusive: 0.326 µM [activator, full curve]",
O=C1c2ccccc2S(=O)(=O)N1CC1CC(c2ccccc2)=NO1 (stereo not given),"inconclusive: 18.4 µM [activator, single point]",
CCOc1ccccc1N1CCN(C(=O)c2ccncc2)CC1,"inconclusive: 0.146 µM [falling, full curve, poor fit]",
Cc1[nH]n(-c2nc(-c3ccc(Cl)cc3)cs2)c(=O)c1N=Nc1ccc(O)cc1,"inconclusive: 18.4 µM [falling, partial curve, poor fit]",
COc1ccc(OC)c(Nc2nc3ccc(C)cc3n3cnnc23)c1,"inconclusive: 13 µM [falling, partial curve]",
COc1ccc(/C=N/NC(=O)c2cccs2)c2ccccc12,"inconclusive: 20.6 µM [activator, single point]",
Cc1oc2c(CN3CCOCC3)c(O)ccc2c(=O)c1-c1ccc(Br)cc1,,inactive: -4.49%
COc1cccc(CNc2nc(-c3cccnc3)nc3ccccc23)c1,"inconclusive: 14.6 µM [falling, single point]",
CC1CC(C)CN(C(=S)Nc2ccc3nc4n(c(=O)c3c2)CCCCC4)C1 (stereo not given),"inconclusive: 20.6 µM [falling, single point]",
O=C(NCc1ccc(Cl)cc1)c1cc2ccccn2n1,"inconclusive: 16.4 µM [activator, partial curve]",
O=C(CN1C(=O)c2cccc([N+](=O)[O-])c2C1=O)OCC(=O)N1CCCCC1,"inconclusive: 0.231 µM [falling, full curve, poor fit]",
O=C(NCc1cccnc1)c1ccc(NC(=O)c2ccc([N+](=O)[O-])cc2)cc1,"inconclusive: 29.1 µM [falling, single point]",
Cc1ccc(-c2c(CN3CCN(c4cc(Cl)ccc4C)CC3)csc2C)cc1,"inconclusive: 18.4 µM [activator, single point]",
Cc1ccc(NC(=O)c2ccc3c(c2)CCN3S(C)(=O)=O)cc1C,"inconclusive: 3.26 µM [activator, full curve]",
O=P(Cc1ccccc1)(Cc1ccccc1)c1ccccc1,"inconclusive: 20.6 µM [activator, partial curve, poor fit]",
Cc1ccc(OCc2nnc(NC(=O)c3ccco3)s2)cc1,,inactive: 4.53%
Cc1ccc(CNC(=O)c2ccc3c(=O)c(O)c(-c4ccc(C)cc4)[nH]c3c2)cc1,active: 20.6 µM,
O=C(c1cc(-c2ccc(Br)cc2)n[nH]1)N1CCN(C(=O)c2ccccc2Br)CC1,active: 25.9 µM,
